Test results taken from PubChem BioAssay AID248 (DTP/NCI, 2004).
The list shows only some results of the screen, not a fair sample: it gathers tests that were run many times, whatever their T/C, doses with no T/C, and many T/C values between a quarter and a half above the control. Other doses and runs of a compound stand elsewhere. T/C is the treated group as % of the vehicle group. Some doses have a count of surviving animals in place of a T/C: the source files T/C as zero there, which appears to mark a toxic dose or a test without result, not a measured value. Some survivor counts are full or nearly so, which does not show that the dose was tolerated: the source hardly ever lists a survival T/C far under the control, and the zero likely stands for such cases as well. Counts of survivors are from the toxicity check (mostly the fifth day) where no day follows; animals may have died later. Schedules are NCI's codes, taken here to give the interval after Q, in days (D) or hours (H), and the number of doses after X. Some entries were tested several times; their values stand side by side, smallest first. Some schedule codes hold Z or #, which are not explained here. Where survival is the endpoint, this PubChem deposit counts one and a half times the control or more as active, and values a quarter to a half above the control carry no call in these data; other NCI protocols may use other cut-offs.

Test system: L1210 leukemia ip in BDF1 mice, survival T/C
Test: NCI In Vivo Anticancer Drug Screen. Data for tumor model L1210 Leukemia (intraperitoneal) in B6D2F1 (BDF1) mice
Conditions: T/C endpoint: mean survival time, higher T/C = longer survival
[1] = dose: 400.0 mg/kg/injection, schedule: Q01DX001 (ip), vehicle: other
[2] = dose: 400.0 mg/kg/injection, schedule: Q01DX001 (ip), vehicle: saline
[3] = dose: 100.0 mg/kg/injection, schedule: Q04DX002 (ip), vehicle: saline with Tween-80
[4] = dose: 200.0 mg/kg/injection, schedule: Q04DX002 (ip), vehicle: saline with Tween-80
[5] = dose: 400.0 mg/kg/injection, schedule: Q04DX002 (ip), vehicle: saline with Tween-80
[6] = dose: 300.0 mg/kg/injection, schedule: Q01DX001 (ip), vehicle: saline
[7] = dose: 200.0 mg/kg/injection, schedule: Q04DX002 (ip), vehicle: Klucel (hydroxypropylcellulose) (HPC)
[8] = dose: 400.0 mg/kg/injection, schedule: Q04DX002 (ip), vehicle: Klucel (hydroxypropylcellulose) (HPC)
[9] = dose: 400.0 mg/kg/injection, schedule: Q04DX003 (ip), vehicle: saline
[10] = dose: 150.0 mg/kg/injection, schedule: Q01DX001 (ip), vehicle: saline
[11] = dose: 100.0 mg/kg/injection, schedule: Q01DX001 (ip), vehicle: saline
[12] = dose: 200.0 mg/kg/injection, schedule: Q01DX001 (ip), vehicle: saline

NC(N)=NC(N)=NCCCc1ccccc1
survivor count (dose: 100.0 mg/kg/injection, schedule: Q01DX001 (ip), vehicle: other): 2 of 6 | survivor count (dose: 200.0 mg/kg/injection, schedule: Q01DX001 (ip), vehicle: other): 1 of 6 | survivor count [1]: 1 of 6 | survivor count [2]: 0 of 6

CCCCCCCCC/C=N\N=C(N)N
survivor count (dose: 480.0 mg/kg/injection, schedule: Q01DX Z (ip), vehicle: carboxymethylcellulose (CMC)): 3 of 6

N#CC(Cl)(Cl)C(N)=O
survivor count (dose: 25.0 mg/kg/injection, schedule: Q04DX002 (ip), vehicle: saline): 2 of 6 | survivor count (dose: 50.0 mg/kg/injection, schedule: Q04DX002 (ip), vehicle: saline): 0 of 6 | survivor count [3]: 0 of 3 | survivor count [4]: 0 of 3 | survivor count [5]: 0 of 3

CC(=O)OC1CC(C)(C)CC(OC(C)=O)C1(C)C (configuration not stated)
survivor count [6]: 0 of 6

c1ccc2c(OCC3=NCCN3)cccc2c1
survivor count (dose: 100.0 mg/kg/injection, schedule: Q01DX009 (ip), vehicle: Klucel (hydroxypropylcellulose) (HPC)): 2 of 6 | survivor count (dose: 200.0 mg/kg/injection, schedule: Q01DX001 (ip), vehicle: Klucel (hydroxypropylcellulose) (HPC)): 0 of 6 | survivor count (dose: 400.0 mg/kg/injection, schedule: Q01DX001 (ip), vehicle: Klucel (hydroxypropylcellulose) (HPC)): 0 of 6

CCCCCCCCCCCCCCCCNC(=O)C[N+](C)(C)Cc1ccccc1
survivor count (dose: 10.0 mg/kg/injection, schedule: Q01DX009 (ip), vehicle: saline with Tween-80): 4 of 6

N#CSCCSC#N
survivor count (dose: 20.0 mg/kg/injection, schedule: Q04DX003 (ip), vehicle: Klucel (hydroxypropylcellulose) (HPC)): 0 of 6 | survivor count (dose: 40.0 mg/kg/injection, schedule: Q04DX003 (ip), vehicle: Klucel (hydroxypropylcellulose) (HPC)): 0 of 6 | survivor count (dose: 100.0 mg/kg/injection, schedule: Q04DX002 (ip), vehicle: Klucel (hydroxypropylcellulose) (HPC)): 0 of 3 | survivor count [7]: 0 of 3 | survivor count [8]: 0 of 3

CN(C)CC1C2C=CC(C2)C1CN(C)C (configuration not stated)
survivor count [9]: 0 of 6

COC(C#N)C(=N)CC#N (configuration not stated)
survivor count (dose: 38.0 mg/kg/injection, schedule: Q01DX001 (ip), vehicle: saline): 0 of 6 | survivor count (dose: 75.0 mg/kg/injection, schedule: Q01DX001 (ip), vehicle: saline): 0 of 6 | survivor count [10]: 0 of 6 | survivor count [6]: 0 of 6

C=CCCCCCCCCC(=O)NCCCN1CCOCC1
survivor count (dose: 200.0 mg/kg/injection, schedule: Q01DX009 (ip), vehicle: saline with Tween-80): 0 of 6

CN(C)P(Cl)(Cc1ccccc1)(c1ccccc1)c1ccccc1
survivor count (dose: 12.5 mg/kg/injection, schedule: Q01DX009 (ip), vehicle: saline): 0 of 6 | survivor count (dose: 25.0 mg/kg/injection, schedule: Q04DX003 (ip), vehicle: saline): 0 of 6 | survivor count (dose: 50.0 mg/kg/injection, schedule: Q04DX003 (ip), vehicle: saline): 0 of 6 | survivor count (dose: 100.0 mg/kg/injection, schedule: Q04DX003 (ip), vehicle: saline): 0 of 6 | survivor count (dose: 200.0 mg/kg/injection, schedule: Q04DX003 (ip), vehicle: saline): 0 of 6 | survivor count [9]: 0 of 6

COc1ncccn1
survivor count (dose: 150.0 mg/kg/injection, schedule: Q01DX009 (ip), vehicle: saline): 0 of 6 | survivor count (dose: 300.0 mg/kg/injection, schedule: Q01DX009 (ip), vehicle: saline): 0 of 6

C/C=C/C=N/Nc1ccccc1
survivor count [1]: 4 of 6

CCCCOC(=O)/C=C\C(=O)NC(N)=O
survivor count (dose: 76.0 mg/kg/injection, schedule: Q01DX Z (ip), vehicle: methylcellulose (MC)): 3 of 6 | survivor count (dose: 114.0 mg/kg/injection, schedule: Q01DX Z (ip), vehicle: methylcellulose (MC)): 1 of 6

Cc1cc2ccccc2[n+](C)c1-c1ccccc1Br
survivor count (dose: 20.0 mg/kg/injection, schedule: Q01DX001 (ip), vehicle: saline): 0 of 6 | survivor count (dose: 40.0 mg/kg/injection, schedule: Q01DX001 (ip), vehicle: saline): 0 of 6 | survivor count (dose: 80.0 mg/kg/injection, schedule: Q01DX001 (ip), vehicle: saline): 0 of 6 | survivor count [11]: 0 of 4 | survivor count [12]: 0 of 4 | survivor count [2]: 0 of 4

C=C1C(=O)O[C@@H]2/C=C(/C)[C@@]3(O)C=C[C@](C)(C[C@@H](OC(=O)/C(=C\C)COC(C)=O)[C@@H]12)O3
survivor count (dose: 0.12 mg/kg/injection, schedule: Q01DX009 (ip), vehicle: carboxymethylcellulose (CMC)): 4 of 6 | survivor count (dose: 0.25 mg/kg/injection, schedule: Q01DX009 (ip), vehicle: carboxymethylcellulose (CMC)): 3 of 6 | survivor count (dose: 0.5 mg/kg/injection, schedule: Q01DX009 (ip), vehicle: carboxymethylcellulose (CMC)): 3 of 6 | survivor count (dose: 1.0 mg/kg/injection, schedule: Q01DX009 (ip), vehicle: carboxymethylcellulose (CMC)): 2 of 6 and 3 of 6 | survivor count (dose: 2.0 mg/kg/injection, schedule: Q01DX009 (ip), vehicle: carboxymethylcellulose (CMC)): 3 of 6 | survivor count (dose: 4.0 mg/kg/injection, schedule: Q01DX009 (ip), vehicle: carboxymethylcellulose (CMC)): 1 of 6 | survivor count (dose: 8.0 mg/kg/injection, schedule: Q01DX009 (ip), vehicle: carboxymethylcellulose (CMC)): 1 of 6

CCCCOC(=O)C1=NC=NC1=[N+]=[N-]
survivor count [11]: 0 of 6 | survivor count [12]: 0 of 6 | survivor count [2]: 0 of 6

CC(=O)Nc1ccc(S(=O)(=O)Oc2ccc([N+](=O)[O-])cc2)cc1
survivor count (dose: 200.0 mg/kg/injection, schedule: Q01DX009 (ip), vehicle: saline): 6 of 6

CCOC(=O)c1cccnc1NC(=O)c1ccccc1
T/C [8]: 125 % of control | survivor count [8]: 3 of 3

CCCCCCCCC(=O)C[N+](=O)[O-]
survivor count [10]: 1 of 6 | survivor count [6]: 0 of 6

COc1ccc(CCCNCCCCCCNCCCc2ccc(OC)cc2)cc1
survivor count [7]: 1 of 3

COC(=O)N1C(c2ccccc2)CS1(=O)=O (configuration not stated)
survivor count [7]: 0 of 3 | survivor count [8]: 0 of 3

CC(=O)Oc1ccc(N2C(=O)C=CC2=O)cc1
survivor count (dose: 12.5 mg/kg/injection, schedule: Q04DX003 (ip), vehicle: Klucel (hydroxypropylcellulose) (HPC)): 3 of 6 | survivor count (dose: 18.48 mg/kg/injection, schedule: Q01DX009 (ip), vehicle: Klucel (hydroxypropylcellulose) (HPC)): 0 of 6 | survivor count (dose: 28.0 mg/kg/injection, schedule: Q01DX009 (ip), vehicle: Klucel (hydroxypropylcellulose) (HPC)): 0 of 6 | survivor count (dose: 42.0 mg/kg/injection, schedule: Q01DX009 (ip), vehicle: Klucel (hydroxypropylcellulose) (HPC)): 0 of 6 | survivor count (dose: 50.0 mg/kg/injection, schedule: Q04DX003 (ip), vehicle: Klucel (hydroxypropylcellulose) (HPC)): 2 of 6

Clc1cc2nsnc2c2ccccc12
survivor count (dose: 100.0 mg/kg/injection, schedule: Q04DX002 (ip), vehicle: gum acacia): 3 of 3 | survivor count (dose: 400.0 mg/kg/injection, schedule: Q04DX002 (ip), vehicle: gum acacia): 3 of 3

CCC[CH2][Sn]([CH2]CC#N)([CH2]CCC)[CH2]CCC
survivor count [3]: 0 of 3 | survivor count (dose: 100.0 mg/kg/injection, schedule: Q04DX002 (ip), vehicle: saline): 0 of 3 | survivor count [4]: 0 of 3 | survivor count [5]: 0 of 3
